{"source": "the supplement of paper PMC8166895", "note": "Where a name gives a salt, the structure may show the parent alone. Some of the results follow. Most values lie at the level of the controls, where differences are scatter.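 A single-replicate pilot screen of approved drugs and clinical or known-target compounds measured melting temperature via differential scanning fluorimetry. Top stabilizing hits raised the melting point by 2 °C or more; negative shifts indicate destabilization.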"}
{"system": "SARS-CoV-2 main protease (Mpro, nsp5)", "assay": "thermal shift ΔTm of Mpro relative to plate average Tm; higher = stronger thermal stabilization of Mpro (binding)", "conditions": "10 µM; protein concentration 1 µM", "units": {"thermal shift ΔTm of Mpro": "°C"}}
{"compound": "COc1cc2ncnc(Oc3ccc(CC(=O)Nc4cnn(C(C)C)c4)cc3)c2cc1OC", "thermal shift ΔTm of Mpro": -0.0695}
{"compound": "COc1ncc(-c2ccc3nccc(-c4ccnnc4)c3c2)cc1NS(=O)(=O)c1ccc(F)cc1F", "thermal shift ΔTm of Mpro": 0.305}
{"compound": "CCN(CC)CCOc1ccc(C(=C(Cl)c2ccccc2)c2ccccc2)cc1", "note": "[Clomifene citrate]", "thermal shift ΔTm of Mpro": -0.0819}
{"compound": "C=C[C@@H]1C[C@]1(NC(=O)[C@@H]1C[C@@H]2CN1C(=O)[C@H](C(C)(C)C)NC(=O)O[C@@H]1C[C@H]1CCCCCc1nc3ccc(OC)cc3nc1O2)C(=O)NS(=O)(=O)C1CC1", "note": "[Grazoprevir]", "thermal shift ΔTm of Mpro": -0.0785}
{"compound": "CCC1=C[C@H]2CN3CCc4c([nH]c5ccccc45)[C@](C(=O)OC)(C2)[C@H]13", "note": "[Catharanthine]", "thermal shift ΔTm of Mpro": -0.134}
{"compound": "C[C@]1(COc2ccc(N3CCC(Oc4ccc(OC(F)(F)F)cc4)CC3)cc2)Cn2cc([N+](=O)[O-])nc2O1", "note": "[Delamanid]", "thermal shift ΔTm of Mpro": 0.105}
{"compound": "CCCCNc1ccc(C(=O)OCCN(C)C)cc1", "note": "[Tetracaine HCl]", "thermal shift ΔTm of Mpro": -0.0444}
{"compound": "CCCCCOC(=O)Nc1nc(=O)n([C@@H]2O[C@H](C)[C@@H](O)[C@H]2O)cc1F", "note": "[Capecitabine]", "thermal shift ΔTm of Mpro": 0.0383}
{"compound": "COc1ccc2cc(-c3nc(-c4ccc([S+](C)[O-])cc4)[nH]c3-c3ccncc3)ccc2c1", "note": "(stereo not drawn) [Tie2 kinase inhibitor]", "thermal shift ΔTm of Mpro": -0.26}
{"compound": "Nc1ncnc2c1C(=O)N(c1ccc([C@H]3CC[C@H](CC(=O)O)CC3)cc1)CCO2", "thermal shift ΔTm of Mpro": -0.0283}
{"compound": "Cc1ncc(COP(=O)(O)O)c(C=O)c1O", "note": "[Pyridoxal phosphate]", "thermal shift ΔTm of Mpro": -0.00245}
{"compound": "CC(O)(P(=O)(O)O)P(=O)(O)O", "note": "[Sodium etidronate]", "thermal shift ΔTm of Mpro": 0.126}
{"compound": "CC(O)(P(=O)(O)O)P(=O)(O)O", "note": "[Etidronate]", "thermal shift ΔTm of Mpro": 0.104}
{"compound": "CNCC(O)c1ccc(O)cc1", "note": "(stereo not drawn) [Synephrine HCl]", "thermal shift ΔTm of Mpro": -0.111}
{"compound": "CNCC(O)c1ccc(O)cc1", "note": "(stereo not drawn) [Synephrine]", "thermal shift ΔTm of Mpro": -0.0728}
{"compound": "FC(F)(F)c1ccc(CNc2ccc(Cc3c[nH]c4ncc(Cl)cc34)cn2)cc1", "thermal shift ΔTm of Mpro": 0.159}
{"compound": "Cc1cc(-c2ncc(CC(=O)Nc3ccc(-c4cnccn4)cn3)cc2C)ccn1", "thermal shift ΔTm of Mpro": 0.0102}
{"compound": "O=C(O)COCCN1CCN([C@H](c2ccccc2)c2ccc(Cl)cc2)CC1", "note": "[Levocetirizine]", "thermal shift ΔTm of Mpro": 0.129}
{"compound": "Cc1cnc(C(=O)NCCc2ccc(S(=O)(=O)NC(=O)NC3CCCCC3)cc2)cn1", "note": "[Glipizide]", "thermal shift ΔTm of Mpro": -0.114}
{"compound": "CN1CCC(NC(=O)c2cc(-c3c(O)cc(O)cc3Oc3ccc([N+](=O)[O-])cc3)on2)CC1", "thermal shift ΔTm of Mpro": 0.388}
{"compound": "CC1=C(/C=C/C(C)=C/C=C/C(C)=C/C(=O)Nc2ccc(O)cc2)C(C)(C)CCC1=O", "note": "[4-Oxofenretinide]", "thermal shift ΔTm of Mpro": 0.041}
{"compound": "c1cc(-c2cnn3cc(-c4ccc(OCCN5CCCCC5)cc4)cnc23)ccn1", "note": "[Dorsomorphin]", "thermal shift ΔTm of Mpro": -0.00235}
{"compound": "O=C1[C@H](CC[C@H](O)c2ccc(F)cc2)[C@@H](c2ccc(O)cc2)N1c1ccc(F)cc1", "note": "[Ezetimibe]", "thermal shift ΔTm of Mpro": 0.0143}
{"compound": "CCN1C(=CC(C)=O)Sc2ccc(OC)cc21", "thermal shift ΔTm of Mpro": -0.0978}
{"compound": "CC(C)Cc1ccc(-c2nc(-c3ccc(CN4CC(C(=O)O)C4)c(F)c3)no2)cc1", "note": "[S1p-receptor-agonist-1]", "thermal shift ΔTm of Mpro": 0.0707}
{"compound": "CC(C)NCC(O)c1cc(O)cc(O)c1", "note": "(stereo not drawn) [Orciprenaline sulfate]", "thermal shift ΔTm of Mpro": 0.211}
{"compound": "CN1CCc2cc3c(cc2C1O)OCO3", "note": "(stereo not drawn) [Hydrastinine hydrochloride]", "thermal shift ΔTm of Mpro": 0.185}
{"compound": "O=C1/C(=C/c2ccc(O)cc2)Oc2cc(O)ccc21", "note": "[Hispidol]", "thermal shift ΔTm of Mpro": 0.266}
{"compound": "CC(=O)/C(C)=N/O", "note": "[2,3-Butanedione 2-Monoxime]", "thermal shift ΔTm of Mpro": 0.0319}
{"compound": "CC(=O)NCCC(=O)O", "thermal shift ΔTm of Mpro": 0.264}
{"compound": "O=C(O)CN(CCN(CC(=O)O)CC(=O)O)CCN(CC(=O)O)CC(=O)O", "note": "[Pentetic Acid]", "thermal shift ΔTm of Mpro": 0.273}
{"compound": "CCc1cnn2c(NCc3ccc[n+]([O-])c3)cc(N3CCCC[C@H]3CCO)nc12", "thermal shift ΔTm of Mpro": -0.137}
{"compound": "Cn1c(=O)c2c(ncn2CCO)n(C)c1=O", "note": "[Etofylline]", "thermal shift ΔTm of Mpro": 0.186}
{"compound": "O=C1NC(=O)[C@@H](c2cn3c4c(cccc24)CCC3)[C@@H]1c1c[nH]c2ccccc12", "note": "[Tivantinib (ARQ 197)]", "thermal shift ΔTm of Mpro": -0.0528}
{"compound": "CC(=O)Nc1ccc(C(=O)NC(C)(C)C)cc1", "thermal shift ΔTm of Mpro": -0.0341}
{"compound": "C[C@@]1(c2cc(-c3cncnc3)c(F)cc2F)CCSC(N)=N1", "thermal shift ΔTm of Mpro": -0.108}
{"compound": "CCCN1CCN(c2ccc(C(=O)NC3(C(=O)NCC#N)CCCCC3)cc2)CC1", "note": "[Balicatib]", "thermal shift ΔTm of Mpro": -0.0327}
{"compound": "C[C@H]1Oc2cc(cnc2N)-c2c(nn(C)c2C#N)CN(C)C(=O)c2ccc(F)cc21", "thermal shift ΔTm of Mpro": -0.0597}
{"compound": "COc1ccccc1N1CCN(CCCNc2cc(=O)n(C)c(=O)n2C)CC1", "note": "[Urapidil HCl]", "thermal shift ΔTm of Mpro": 0.0532}
{"compound": "COc1ccccc1N1CCN(CCCNc2cc(=O)n(C)c(=O)n2C)CC1", "note": "[Urapidil]", "thermal shift ΔTm of Mpro": 0.178}
{"compound": "O=C(Nc1cccc(Nc2ncc(Br)c(NCCc3cnc[nH]3)n2)c1)N1CCCC1", "thermal shift ΔTm of Mpro": 0.142}
{"compound": "CC(C)(O)CS(=O)(=O)Nc1ccc2c(c1)CCN(C(=O)COc1cccnc1)C2", "note": "[Nampt-IN-1]", "thermal shift ΔTm of Mpro": -0.0369}
{"compound": "COc1nc(N)nc2c1ncn2[C@@H]1O[C@H](CO)[C@@H](O)[C@@H]1O", "note": "[Nelarabine]", "thermal shift ΔTm of Mpro": 0.167}
{"compound": "Oc1ccccc1-c1ccc2cccnc2n1", "thermal shift ΔTm of Mpro": 0.0137}
{"compound": "CN(C)CCCn1cc(C2=C(c3c[nH]c4ccccc34)C(=O)NC2=O)c2ccccc21", "thermal shift ΔTm of Mpro": -0.121}
{"compound": "Cc1sc2c(c1C)C(c1ccc(Cl)cc1)=N[C@@H](CC(=O)Nc1ccc(O)cc1)c1nnc(C)n1-2", "thermal shift ΔTm of Mpro": -0.375}
{"compound": "OC[C@H]1O[C@@H](n2cnc3c2N=CNC[C@H]3O)C[C@@H]1O", "note": "[Pentostatin]", "thermal shift ΔTm of Mpro": -0.00801}
{"compound": "CCC(=O)OCC(=O)[C@@]1(OC(=O)CC)[C@@H](C)C[C@H]2[C@@H]3CCC4=CC(=O)C=C[C@]4(C)[C@@]3(Cl)[C@@H](O)C[C@@]21C", "note": "[Beclomethasone dipropionate]", "thermal shift ΔTm of Mpro": -0.0739}
{"compound": "O=C(O)C(S)=Cc1c[nH]c2ccc(F)cc12", "thermal shift ΔTm of Mpro": 0.585}
{"compound": "COc1ccc2[nH]c(C(=O)c3ccccc3)cc2c1", "thermal shift ΔTm of Mpro": -0.00675}
{"compound": "O=C(/C=C/C=C/c1ccc2c(c1)OCO2)N1CCCCC1", "note": "[Piperine]", "thermal shift ΔTm of Mpro": 0.0055}
{"compound": "C[C@@H]1O[C@@H](OC[C@H]2O[C@@H](Oc3c(-c4ccc(O)cc4)oc4cc(O)cc(O)c4c3=O)[C@H](O)[C@@H](O)[C@@H]2O)[C@H](O)[C@H](O)[C@H]1O", "note": "[Nicotiflorin]", "thermal shift ΔTm of Mpro": 0.0459}
{"compound": "O=c1c2ccccc2nc2n1CCc1c-2[nH]c2ccccc12", "note": "[Rutaecarpine]", "thermal shift ΔTm of Mpro": -0.0239}
